The assay is described as follows: qHTS Assay for Modulators of Lamin A Splicing. Conditions: HeLa LMNA splicing GFP/RFP minigene ratio, 48 h. The essentials: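 Read-out is the ratio of GFP to DsRed2 object intensity, acquired by 488 nm laser-scanning cytometry on HeLa lamin A-EGFP minigene reporter cells. Compound incubation 48 hrs at 37 °C in Opti-MEM with 2% FBS; DMSO 0.5% final.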
A general note: In qHTS, concentration-response curves come from the screen itself.

[1] abbreviates: measured here: RFP viability control channel.
Where [2] appears, read: measured here: GFP splicing reporter channel.

“And” between values parts separate entries of the source, which are not always exact repeats. Equal entries are not always repeated. The list shows a part of the results. These are further read-outs of the screen, such as a control signal, another cell line or another target. No call is given for them. Most of these compounds were active or inconclusive in the main read-out, so they are no random draw. Words in brackets tell the shape of the fitted curve; partial curves, single points and poor fits give uncertain potencies.

Take `CCc1nc(NCCc2ccccn2)c2nnn(Cc3ccccc3F)c2n1`: the AC50 (as a rule, the concentration at which the activity in the assay is half-maximal) under setting [1] was 35.5 µM [rising, single point]. Consider `COc1cc2c(cc1NC(=O)c1cccc(F)c1)CCCC2`, for which the half-maximal activity concentration (AC50) is, setting by setting: under setting [2], 20 µM [rising, single point]; under setting [1], 31.6 µM [rising, single point]. With `CC(C)NC[C@@H](O)COc1cccc2ccccc12`, the AC50 under setting [2] is 35.5 µM [falling, single point] and 12.6 µM [rising, partial curve]; the AC50 under setting [1] was 35.5 µM [falling, single point] and 2.51 µM [rising, single point]. As to `COc1cc(NC(=O)CCNS(=O)(=O)c2ccc3c(c2)CCN3C(=O)C2CC2)cc(OC)c1`, under setting [1], the AC50 was 0.562 µM [falling, full curve].

As for `N#CC(C#N)=c1ccc2c(c1)NC1(CCCCC1)N=2`, the concentration at half-maximal activity (AC50) under setting [2] was 22.4 µM [falling, single point] and the AC50 under setting [1] is 22.4 µM [falling, single point]. `O=C(CCN1CCc2ccccc2CC1)c1ccc2c(c1)OCCO2`: the AC50 under setting [1] was 12.6 µM [rising, partial curve, poor fit]. Same read-out and setting: with `Brc1csc(/C=N/Nc2nc3ccccc3s2)c1` the figure was 0.0316 µM [rising, full curve, poor fit]; with `O=Cc1c(Sc2ccccn2)nc2ccccn2c1=O`, 35.5 µM [falling, single point]. Same read-out and setting: for `COc1ccc(CN2C(=O)CCC2(C)C(=O)NC2CCCCCC2)cc1` (stereo unspecified) the value was 0.0501 µM [falling, full curve, poor fit].

`CCOc1ccccc1-c1nc(C(N)=O)c2[nH]c(=O)n(-c3ccccc3)c2n1`: the half-maximal activity concentration (AC50) under setting [1] is 3.55 µM [falling, partial curve, poor fit]. On to `CCc1cn([C@H]2C[C@H](O)[C@@H](CO)O2)c(=O)[nH]c1=O`, for which the concentration at half-maximal activity (AC50) is 0.0794 µM [rising, full curve, poor fit] under setting [2] and 0.447 µM [rising, full curve, poor fit] under setting [1]. On to `O=c1c2cnn(-c3ccccc3)c2nc(-c2ccco2)n1-c1ccccc1`, for which the AC50 was 5.01 µM [rising, partial curve, poor fit] under setting [2] and 7.94 µM [rising, partial curve] under setting [1]. In the case of `Cc1cc(C(=O)OC(C(=O)Nc2cccc(C(F)(F)F)c2)c2ccccc2)c(C)o1` (stereo unspecified), under setting [1], the concentration at half-maximal activity (AC50) was 35.5 µM [rising, single point]. Regarding `CC(=O)NN1C(=O)/C(=C\c2ccc(Br)o2)SC1=S`, the AC50 reads like this: under setting [2], 35.5 µM [rising, single point]; under setting [1], 35.5 µM [rising, single point].

For `Cn1cnc([N+](=O)[O-])c1S(=O)(=O)c1cccc(Cl)c1`, under setting [1], the AC50 was 35.5 µM [rising, single point].
